From paper PMC7371361
No constants are given. Whether binding was seen depends on the method and setting. Binding seen in cells or lysates may run through a third protein. Some binding calls cover weakened binding; strength is not graded here.

Sequences of proteins named here, by UniProt entry; tags and fusion partners are left off.
UniProt P51149: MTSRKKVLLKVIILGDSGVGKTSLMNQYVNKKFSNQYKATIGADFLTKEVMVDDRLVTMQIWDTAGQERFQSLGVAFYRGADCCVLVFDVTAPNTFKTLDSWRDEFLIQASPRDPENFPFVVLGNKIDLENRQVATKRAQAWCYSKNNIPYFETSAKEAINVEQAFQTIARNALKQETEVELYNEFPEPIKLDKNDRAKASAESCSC
UniProt Q14457: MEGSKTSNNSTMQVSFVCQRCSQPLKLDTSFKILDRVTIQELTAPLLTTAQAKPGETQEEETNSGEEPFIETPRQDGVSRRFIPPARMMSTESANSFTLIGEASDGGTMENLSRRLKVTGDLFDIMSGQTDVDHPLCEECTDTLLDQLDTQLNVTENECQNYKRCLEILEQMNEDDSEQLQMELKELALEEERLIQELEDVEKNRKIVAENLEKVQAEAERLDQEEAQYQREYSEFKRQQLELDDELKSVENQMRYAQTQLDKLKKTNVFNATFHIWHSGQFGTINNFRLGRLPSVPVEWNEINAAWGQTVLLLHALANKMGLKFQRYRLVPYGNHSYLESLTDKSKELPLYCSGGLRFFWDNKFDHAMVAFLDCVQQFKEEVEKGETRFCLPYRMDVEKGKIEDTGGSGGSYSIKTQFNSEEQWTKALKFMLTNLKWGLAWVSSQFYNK

Assays:
[1] = target: Rab7 (human (endogenous in Hep2)) (UniProt P51149); experiment: co-IP; endogenous proteins in lysate of Hep2 cells stimulated with FbaA; anti-Beclin-1 or anti-Rab7 antibody overnight at 4°C, protein A/G beads (Pierce classic magnetic IP/co-IP kit), Western blot
[2] = target: Beclin-1 (human (endogenous in Hep2)) (UniProt Q14457); experiment: as above

Beclin-1 (from UniProt Q14457 1-450)
binding [1]: binds

Rab7 (from UniProt P51149 1-207)
binding [2]: binds
